Data: publication PMC4468860
Results are given in words; binding and its absence hold for the method and conditions named. In cells and extracts the contact can be indirect. Binding can be weak; no strength is given. Tags and fused reporters may be left off the sequences shown.

Biological target: T1, GST-LNt (rat) (UniProt Q63560)
T1 sequence: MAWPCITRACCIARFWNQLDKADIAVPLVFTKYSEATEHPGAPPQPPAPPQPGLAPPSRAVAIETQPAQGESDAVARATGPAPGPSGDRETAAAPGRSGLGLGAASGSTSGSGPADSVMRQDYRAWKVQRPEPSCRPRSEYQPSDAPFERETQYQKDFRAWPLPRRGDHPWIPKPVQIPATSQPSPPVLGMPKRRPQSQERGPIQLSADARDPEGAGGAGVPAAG
Assay: pull-down; GST-LNt on glutathione-sepharose beads incubated with postnatal brain lysate; blots probed with anti-p85 or anti-intersectin; only the target purified

binding: binds
Substance: p85 subunit of PI3K (endogenous, brain)
